These are yes or no findings as the source states them, for the method shown. Tags and fused reporters may be left off the sequences shown.
Target: mutational OsphyC (OsphyC-m), yeast two-hybrid fusion (rice) (UniProt Q10CQ8)
Assay: two-hybrid; pGBKT7 and pGADT7 fusions co-transformed into yeast AH109; growth on SD/-Ade/-His/-Trp/-Leu for 3-4 days at 30 C; 5 mM 3-AT added to the selection medium to detect the strength of the interaction

B1: mutational OsphyC (OsphyC-m), yeast two-hybrid fusion (protein, UniProt Q10CQ8 1-1137)
chain: MSSSRSNNRATCSRSSSARSKHSARVVAQTPMDAQLHAEFEGSQRHFDYSSSVGAANRSGATTSNVSAYLQNMQRGRFVQPFGCLLAVHPETFALLAYSENAAEMLDLTPHAVPTIDQREALAVGTDVRTLFRSHSFVALQKAATFGDVNLLNPILVHARTSGKPFYAIMHRIDVGLVIDLEPVNPVDLPVTATGAIKSYKLAARAIARLQSLPSGNLSLLCDVLVREVSELTGYDRVMAYKFHEDEHGEVIAECKRSDLEPYLGLHYPATDIPQASRFLFMKNKVRMICDCSATPVKIIQDDSLTQPISICGSTLRAPHGCHAQYMASMGSVASLVMSVTINEDEDDDGDTGSDQQPKGRKLWGLMVCHHTSPRFVPFPLRYACEFLLQVFGIQINKEVELAAQAKERHILRTQTLLCDMLLRDAPVGIFTQSPNVMDLVKCDGAALYYQNQLWVLGSTPSEAEIKNIVAWLQEYHDGSTGLSTDSLVEAGYPGAAALGDVVCGMAAIKISSKDFIFWFRSHTAKEIKWGGAKHEPIDADDNGRKMHPRSSFKAFLEVVKWRSVPWEDVEMDAIHTLQLILRGSLQDEDANKNNNAKSIVTAPSDDMKKIQGLLELRTVTNEMVRLIETATAPILAVDITGSINGWNNKAAELTGLPVMEAIGKPLVDLVIDDSVEVVKQILNSALQGIEEQNLQIKLKTFNHQENNGPVILMVNACCSRDLSEKVVGVCFVAQDMTGQNIIMDKYTRIQGDYVAIVKNPSELIPPIFMINDLGSCLEWNEAMQKITGIKREDAVDKLLIGEVFTHHEYGCRVKDHGTLTKLSILMNTVISGQDPEKLLFGFFNTDGKYIESLMTATKRTDAEGKITGALCFLHVASPELQHALQVQKMSEQAAMNSFKELTYIRQELRNPLNGMQFTRNLLEPSDLTEEQRKLLASNVLCQEQLKKILHDTDLESIEQCYTEMSTVDFNLEEALNTVLMQAMPQSKEKQISIDRDWPAEVSCMHLCGDNLRLQQVLADFLACMLQFTQPAEGPIVLQVIPRMENIGSGMQIAHLEFRLVHPAPGVPEALIQEMFRHSPGASREGLGLYISQKLVKTMSGTVQYLRESESSSFIVLVEFPVAQLSTKRCKASTSKF
In the case of B1, the binding is reported as “no binding”.
